About 22,000 (6.9%) of roughly 320,000 compounds were called active. This list was built around the results that the source calls inconclusive (neither active nor inactive); the mix of calls is not that of the screen. Calls come from the whole dose curve; as a rule, active = well fitted inhibition curve with a large enough effect; inconclusive = small, poorly fitted or top-dose-only effect, or another doubt; inactive = no such curve, though single readings can be large or run the other way. Potencies beside an inconclusive call are fits to weak or partial responses and may not hold up.
test: Primary qHTS for delayed death inhibitors of the malarial parasite plastid, 96 hour incubation; settings: P. falciparum luciferase reporter growth; series mostly up to 28.7 µM; activity change, negative = inhibition: at the top concentration
In short: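 P. falciparum expressing integrated firefly luciferase, in erythrocytes at 2% hematocrit, 0.05% parasitemia, incubated with compounds 96 h at 37 C, 5% CO2. Growth inhibition read as loss of luminescence; two-generation exposure targets delayed-death apicoplast inhibitors.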
% is set by controls: 0 for no effect and ±100 for the full control effect; potency is the fitted concentration of half-maximal effect.

| SMILES | Potency | activity change, negative = inhibition |
| --- | --- | --- |
| CCc1cc2c(=O)[nH]c(-c3ccncc3)nc2s1 | inconclusive: 13.1 µM [inhibitor, single point] |  |
| Cc1cccc(N(Cc2ccccc2)C(=O)CSC(C)C(=O)Nc2cc(C)on2)c1 (stereo not given) | active: 10.4 µM |  |
| CCn1c(CSCc2ccc(F)cc2)nnc1SCC(=O)N1CCN(c2ccccc2)CC1 | inconclusive: 18.5 µM [inhibitor, single point] |  |
| CCCn1c(COc2ccccc2)nc2ccccc21 | inconclusive: 18.5 µM [inhibitor, single point] |  |
| C=CCN(C(=O)C1=NN(C2CCS(=O)(=O)C2)C(=O)CC1)c1nc(-c2ccc([N+](=O)[O-])cc2)cs1 (stereo not given) |  | inactive: 411% |
| Cc1nc2ccc(NC(=O)c3ccccc3)cc2s1 |  | inactive: 0% |
| Cc1cc([N+](=O)[O-])nn1CCCC(=O)N1CCN(c2ccccc2)CC1 |  | inactive: -4.03% |
| CCOC(=O)CNC(=O)CNC(=O)c1ccc(OCC(C)C)cc1 |  | inactive: 26.1% |
| CCc1nc(SCC(=O)NCC2CCCO2)c2oc3ccccc3c2n1 (stereo not given) | inconclusive: 14.7 µM [inhibitor, partial curve, poor fit] |  |
| CCOc1ccc(C(NC(=O)/C=C/c2ccco2)c2ccc(OC)c(OC)c2)cc1 (stereo not given) | inconclusive: 14.7 µM [inhibitor, single point] |  |
| COc1ccc(CCNC(=O)c2cc3c(=O)n4cccc(C)c4nc3n(CC3CCCO3)c2=N)cc1 (stereo not given) | inconclusive: 2.08 µM [inhibitor, full curve, poor fit] |  |
| COC(=O)C1=C(c2ccc(F)cc2F)C[C@@H]2CC[C@H]1N2C(=O)NC1CC1 |  | inactive: 39.5% |
| CCS(=O)(=O)N1CCC(C(=O)NCc2cccs2)CC1 | active: 7.38 µM |  |
| COc1ccc(NC(=O)CCNC(=O)c2ccc([N+](=O)[O-])cc2)cc1S(=O)(=O)N1CCOCC1 | inconclusive: 1.65 µM [inhibitor, full curve] |  |
| CC(OC(=O)c1cc(S(=O)(=O)N2CCOCC2)ccc1Br)C(=O)N1CCOCC1 (stereo not given) | inconclusive: 10.4 µM [inhibitor, single point] |  |
| Cc1occc1C(=O)NNC(=O)c1ccc(F)cc1 | inconclusive: 0.0026 µM [inhibitor, full curve, poor fit] |  |
| CC(C)(C)c1ccc(/C=N/NC(=O)C2CCCC2)cc1 | inconclusive: 1.47 µM [inhibitor, full curve, poor fit] |  |
| Cc1occc1C(=O)O/N=C(\N)c1ccc(Cl)cc1 | inconclusive: 5.22 µM [inhibitor, partial curve] |  |
| Cc1cc(-c2nnc(SCC(=O)Nc3ccccc3Cl)n2C)no1 | inconclusive: 16.5 µM [inhibitor, single point] |  |
| CCC1CCc2sc(C(=O)N3CCCN(C)CC3)cc2C1 (stereo not given) |  | inactive: 103% |
| Cc1ccccc1C(=O)NNc1ncnc2c1cnn2C | inconclusive: 14.7 µM [inhibitor, partial curve, poor fit] |  |
| CCCCNC(=O)CS(=O)Cc1nc(-c2cccc(C)c2)oc1C (stereo not given) | active: 0.104 µM |  |
| CN(C(=O)c1ccc(NC(=O)Cc2ccc(NC(=O)C3CCN(C(=O)C4CCCCC4)CC3)cc2)cc1)C1CC1 | inconclusive: 0.415 µM [inhibitor, full curve] |  |
| COc1ccc(C(=O)N(CC2CCCO2)C(C(=O)NC2CCCC2)c2ccc(Cl)cc2)cc1OC (stereo not given) | active: 6.57 µM |  |

| SMILES | Potency | activity change, negative = inhibition |
| --- | --- | --- |
| COc1cc(C(=S)N2CCOCC2)ccc1OC(=O)c1cc([N+](=O)[O-])c(C)c([N+](=O)[O-])c1 | active: 1.65 µM |  |
| COc1ccc2[nH]cc(C3N4CC5(C)CN3CC(C)(C4)C5=O)c2c1 (stereo not given) | inconclusive: 2.33 µM [inhibitor, single point] |  |
| COc1ccccc1NC(=S)N1CC(C)OC(C)C1 (stereo not given) | inconclusive: 1.65 µM [inhibitor, full curve] |  |
| CS(=O)(=O)N(CC(=O)N1CCN(Cc2ccccc2)CC1)c1ccccc1Br | inconclusive: 13.1 µM [inhibitor, single point] |  |
| Cc1nc(NC(=O)c2cccc(Cl)c2)sc1-c1csc(Nc2cccc(Cl)c2)n1 | active: 9.28 µM |  |
| O=C(CN1CCC(O)(c2cccc(C(F)(F)F)c2)CC1)NCCc1ccccc1 |  | inactive: 39% |
| CC1CCN(C(=O)CCNS(=O)(=O)c2ccccc2)CC1 | inconclusive: 0.0029 µM [inhibitor, full curve, poor fit] |  |
| CN(C)S(=O)(=O)c1ccc(NC(=S)NC(=O)Cc2ccccc2)cc1 | inconclusive: 10.4 µM [inhibitor, single point] |  |
| Cc1ccc(O)c(C2=Nc3ccccc3N=C(c3ccco3)C2)c1 | inconclusive: 1.31 µM [inhibitor, partial curve] |  |
| CCc1nnc(N2C(=N)SCC2=O)s1 | inconclusive: 11.7 µM [inhibitor, single point] |  |
| Cn1c(CNC(=O)c2ccc(Cl)cc2)nnc1SCC(=O)NC1CCCC1 |  | inactive: 13% |
| COc1ccc(C(C(=O)NC2CCCC2)N(C(=O)c2ccoc2C)c2cc(C)cc(C)c2)cc1 (stereo not given) | inconclusive: 1.17 µM [inhibitor, partial curve, poor fit] |  |
| O=C(c1cccc(C(F)(F)F)c1)N1CCC(O)(CS(=O)(=O)Cc2ccc(Cl)cc2)CC1 | inconclusive: 11.7 µM [inhibitor, partial curve, poor fit] |  |
| Cc1cccc(OCC(=O)Nc2ccc(N3CCN(S(C)(=O)=O)CC3)cc2)c1C | inconclusive: 5.22 µM [inhibitor, partial curve, poor fit] |  |
| O=C(CCl)N=c1sccn1Cc1ccc(Cl)cc1Cl | active: 11.7 µM |  |
| O=C1c2ccccc2NC2(CCCCC2)N1N=C1CCCCC1 | inconclusive: 4.15 µM [inhibitor, single point] |  |
| Cc1cccc(OCC(=O)NS(=O)(=O)c2ccc(Br)cc2)c1 | inconclusive: 16.5 µM [inhibitor, single point] |  |
| N#CC1(C#N)C(C(N)=O)C1c1ccccc1 (stereo not given) | inconclusive: 10.4 µM [inhibitor, partial curve, poor fit] |  |
| C=C(C)Cn1c(N(CCO)Cc2ccccc2)nc2c1c(=O)[nH]c(=O)n2C | inconclusive: 11.7 µM [inhibitor, single point] |  |
| Cc1[nH]c2ccccc2c1C(=O)CN1C(=O)C(=O)N(C2CCCC2)C1=O |  | inactive: 27.7% |
| CC1CN(S(=O)(=O)c2cccc(C(=O)Nc3ccc(S(=O)(=O)NC4=NCCCCC4)cc3)c2)CC(C)O1 (stereo not given) | inconclusive: 10.4 µM [inhibitor, single point] |  |
| COc1ccc(CNC(=O)C(C)OC(=O)CCN2C(=O)C3CC=CCC3C2=O)cc1 (stereo not given) | inconclusive: 10.4 µM [inhibitor, single point] |  |
| COc1ccc(-c2c[n+](CC(=O)c3ccccc3)c3n2CCCCC3)cc1 | inconclusive: 0.828 µM [inhibitor, full curve, poor fit] |  |
| CCN1CCCC(CO)(Cc2ccccc2)C1 (stereo not given) | inconclusive: 10.4 µM [inhibitor, single point] |  |

Quoted from the entries so far for reference:

| SMILES | Potency | activity change, negative = inhibition |
| --- | --- | --- |
| COc1ccccc1NC(=S)N1CC(C)OC(C)C1 (stereo not given) | inconclusive: 1.65 µM [inhibitor, full curve] |  |
| CS(=O)(=O)N(CC(=O)N1CCN(Cc2ccccc2)CC1)c1ccccc1Br | inconclusive: 13.1 µM [inhibitor, single point] |  |
| Cc1nc(NC(=O)c2cccc(Cl)c2)sc1-c1csc(Nc2cccc(Cl)c2)n1 | active: 9.28 µM |  |
| O=C(CN1CCC(O)(c2cccc(C(F)(F)F)c2)CC1)NCCc1ccccc1 |  | inactive: 39% |
| CC1CCN(C(=O)CCNS(=O)(=O)c2ccccc2)CC1 | inconclusive: 0.0029 µM [inhibitor, full curve, poor fit] |  |
| CN(C)S(=O)(=O)c1ccc(NC(=S)NC(=O)Cc2ccccc2)cc1 | inconclusive: 10.4 µM [inhibitor, single point] |  |
| Cc1ccc(O)c(C2=Nc3ccccc3N=C(c3ccco3)C2)c1 | inconclusive: 1.31 µM [inhibitor, partial curve] |  |
| CCc1nnc(N2C(=N)SCC2=O)s1 | inconclusive: 11.7 µM [inhibitor, single point] |  |
| Cn1c(CNC(=O)c2ccc(Cl)cc2)nnc1SCC(=O)NC1CCCC1 |  | inactive: 13% |
| COc1ccc(C(C(=O)NC2CCCC2)N(C(=O)c2ccoc2C)c2cc(C)cc(C)c2)cc1 (stereo not given) | inconclusive: 1.17 µM [inhibitor, partial curve, poor fit] |  |
| O=C(c1cccc(C(F)(F)F)c1)N1CCC(O)(CS(=O)(=O)Cc2ccc(Cl)cc2)CC1 | inconclusive: 11.7 µM [inhibitor, partial curve, poor fit] |  |
| Cc1cccc(OCC(=O)Nc2ccc(N3CCN(S(C)(=O)=O)CC3)cc2)c1C | inconclusive: 5.22 µM [inhibitor, partial curve, poor fit] |  |
| O=C(CCl)N=c1sccn1Cc1ccc(Cl)cc1Cl | active: 11.7 µM |  |
| O=C1c2ccccc2NC2(CCCCC2)N1N=C1CCCCC1 | inconclusive: 4.15 µM [inhibitor, single point] |  |
| Cc1cccc(OCC(=O)NS(=O)(=O)c2ccc(Br)cc2)c1 | inconclusive: 16.5 µM [inhibitor, single point] |  |
| N#CC1(C#N)C(C(N)=O)C1c1ccccc1 (stereo not given) | inconclusive: 10.4 µM [inhibitor, partial curve, poor fit] |  |
| C=C(C)Cn1c(N(CCO)Cc2ccccc2)nc2c1c(=O)[nH]c(=O)n2C | inconclusive: 11.7 µM [inhibitor, single point] |  |
| Cc1[nH]c2ccccc2c1C(=O)CN1C(=O)C(=O)N(C2CCCC2)C1=O |  | inactive: 27.7% |
| CC1CN(S(=O)(=O)c2cccc(C(=O)Nc3ccc(S(=O)(=O)NC4=NCCCCC4)cc3)c2)CC(C)O1 (stereo not given) | inconclusive: 10.4 µM [inhibitor, single point] |  |

(list continues)

| SMILES | Potency | activity change, negative = inhibition |
| --- | --- | --- |
| O=C(CSc1ccc(Cl)cc1)c1ccco1 | inconclusive: 18.5 µM [inhibitor, partial curve, poor fit] |  |
| Nc1nc(CN2CCN(Cc3ccccc3)CC2)nc(N2CCCc3ccccc32)n1 |  | inactive: -3.48% |
| O=C(C1=C[C@H](c2ccccc2)C[C@H](OCCCCO)O1)N1CCOCC1 |  | inactive: 52.4% |
| CN1OC(COC(=O)c2ccc(Cl)cc2Cl)CC1c1ccccc1 (stereo not given) |  | inactive: 51.2% |
| Cc1cc(C(=O)Nc2ccon2)cs1 | inconclusive: 2.33 µM [inhibitor, partial curve, poor fit] |  |
| Cc1ccc(CC(=O)NNC(=O)c2ccncc2)cc1C |  | inactive: 18.1% |
| CC(C)(C)c1ccc(CN2C3=NCCCN3c3ccccc32)cc1 |  | inactive: 0.766% |
| CCOC(=O)c1ccc(NC(=O)C(=O)NCc2ccco2)cc1 |  | inactive: 32.2% |
| COc1ccccc1C(=O)C1CCCN(C(=O)CCC(=O)c2ccccc2)C1 (stereo not given) | inconclusive: 11.7 µM [inhibitor, single point] |  |
| CCOc1ccccc1NC(=O)C1(S(=O)(=O)c2ccc(Cl)cc2)CC1 |  | inactive: -21.2% |
| Cn1c2c(c(=O)n(C)c1=O)C(c1ccccc1OC(F)F)C1=C(CCCC1=O)N2 (stereo not given) |  | inactive: 0% |
| Cc1ccc(CN2CCN(C)CC2)c(C)c1 | active: 2.94 µM |  |
| O=C(Nc1nnc(C2=COCCO2)o1)c1ccc(F)cc1 | inconclusive: 1.31 µM [inhibitor, full curve] |  |
| COC(=O)c1cc(Cl)c(NC(=O)/C=C/c2ccc(Cl)cc2Cl)cc1OC |  | inactive: 60.3% |
| CCCN(CCC)Cc1c(C(=O)N/N=C/c2c[nH]c3ccccc23)nnn1-c1nonc1N | active: 9.28 µM |  |
| C=CCn1c(Cc2c(C)[nH]c3ccccc23)nnc1SCC(=O)NCc1ccc(F)cc1 | active: 0.262 µM |  |
| O=C(CSc1ncnc2scc(-c3ccccc3)c12)NCc1ccc2c(c1)OCO2 | inconclusive: 9.28 µM [inhibitor, partial curve, poor fit] |  |
| CC(O)CNC(=O)C1CCN(Cc2ccc(OCc3ccccc3)cc2)CC1 (stereo not given) |  | inactive: 29% |
| Cc1c(C(=O)NCCSCc2cccc(C(F)(F)F)c2)cnn1-c1ccc(Cl)cc1 | inconclusive: 18.5 µM [inhibitor, single point] |  |
| O=C(CCc1nnc(Cc2ccc3c(c2)OCO3)o1)NC(c1ccccn1)C(F)(F)F (stereo not given) | inconclusive: 18.5 µM [inhibitor, single point] |  |
| CC(C)c1ccc(N=c2c([N+](=O)[O-])nn(-c3ccc4c(c3)OCCO4)n2O)cc1 | inconclusive: 9.28 µM [inhibitor, partial curve] |  |
| Cc1n[nH]c(C)c1N1C(=O)c2cccc3c(N4CCCCCC4)ccc(c23)C1=O | inconclusive: 18.5 µM [inhibitor, single point] |  |
